Values from PubChem BioAssay AID1224826 (NIAID, 2016).
Aim: 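Genes that change LPS-induced Tnf promoter activity in mouse macrophages when knocked down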 (primary screen). System: RAW264.7 G9 macrophages from mouse bearing reporters for p65 (GFP) and the Tnf promoter (mCherry). Reagent: siRNA pool against mouse genes, 100 nM. Duration: 16 h of LPS stimulation, after 2 days of siRNA transfection. Treatment: bacterial lipopolysaccharide (Salmonella minnesota R595), 10 ng/ml. Measurement: 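Nuclear mCherry signal of the Tnf promoter reporter measured by imaging after background removal, scaled to each plate median and turned into robust z-scores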. Reading the numbers: Tnf reporter robust z-score: higher = stronger Tnf promoter reporter signal after LPS; Tnf reporter intensity: higher = stronger Tnf promoter reporter signal. Active means: 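Called active when robust z-score is at most -1.3, matching the median of the Tlr4 knock-down control, or over 3; control wells and wells with under 50 cells never active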. Calls: active = Tnf reporter clearly lowered or raised; inactive = no clear change in Tnf reporter.
This is a random part of about 17,000 reagents. Of all reagents, about 1,110 (6.6%) are marked active. 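Active means lowered or raised reporter signal; replicate intensities are raw and not normalised per plate.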 Unmarked entries are inactive.

| target gene | Tnf reporter robust z-score | fewer than 50 cells in well | Tnf reporter intensity, replicate 1 | Tnf reporter intensity, replicate 2 |
| --- | --- | --- | --- | --- |
| Btf3 | -0.46 | enough cells in well | 111 | 153 |
| Cstad | -0.03 | enough cells in well | 190 | 175 |
| Ecm1 | 1.07 | enough cells in well | 305 | 320 |
| Dazl | 0.89 | enough cells in well | 216 | 233 |
| Defb6 | -1.23 | enough cells in well | 110 | 84.9 |
| U2af1l4 | – | fewer than 50 cells per well; well left out of calls | 95.5 | 15.5 |
| Rida | -0.77 | enough cells in well | 108 | 172 |
| Cct2 | 1.84 | enough cells in well | 387 | 349 |
| Mill2 | -0.14 | enough cells in well | 230 | 213 |
| Rpp30 | 0.58 | enough cells in well | 182 | 124 |
| Or8g27 | 3.12 (active) | enough cells in well | 275 | 299 |
| Rit2 | -1.06 | enough cells in well | 215 | 120 |
| Hsd17b3 | -0.2 | enough cells in well | 237 | 162 |
| Ucn3 | – | fewer than 50 cells per well; well left out of calls | 72.7 | 67.9 |
| Or4a71 | 0.27 | enough cells in well | 243 | 99.6 |
| Hgf | 0.42 | enough cells in well | 270 | 217 |
| Vps37a | 0.01 | enough cells in well | 154 | 190 |
| Dph7 | 0.05 | enough cells in well | 203 | 56.9 |
| Hoxd4 | 0.49 | enough cells in well | 264 | 231 |
| Ubap2 | 0.57 | enough cells in well | 288 | 257 |
| Nsd1 | -0.38 | enough cells in well | 182 | 180 |
| Pstk | -0.93 | enough cells in well | 145 | 100 |
| Bcat1 | 1.72 | enough cells in well | 228 | 257 |
| Nudt6 | 0.59 | enough cells in well | 224 | 180 |

3 entries from above, reformatted.
target gene,Tnf reporter robust z-score,fewer than 50 cells in well,"Tnf reporter intensity, replicate 1","Tnf reporter intensity, replicate 2"
Pstk,-0.93,enough cells in well,145,100
Bcat1,1.72,enough cells in well,228,257
Nudt6,0.59,enough cells in well,224,180
